From PubChem BioAssay AID504467 (National Center for Advancing Translational Sciences (NCATS), 2011)
Hit rate of the full screen: of about 330,000 compounds, about 7,700 (2.3%) were called active. The shares of active, inactive and inconclusive entries below differ from those in the screen. The call rests on the fitted dose curve; in most records, active means well fitted inhibition curve with a large enough effect; inconclusive means small, poorly fitted or top-dose-only effect, or effect the other way; inactive means flat fitted curve, though single readings scatter. Potencies of inconclusive entries are doubtful fits and often do not repeat.

Assay: qHTS screen for small molecules that inhibit ELG1-dependent DNA repair in human embryonic kidney (HEK293T) cells expressing luciferase-tagged ELG1; further: nearly all actives have a fitted effect of over 55% in size
Conditions: HEK293T ELG1-luciferase reporter, luminescence, 16 h, DNA damage induced by 5-fluorouridine; activity change, negative = inhibition: at 46.1 µM (top of the series)
Summary of the method: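 In this reporter screen, reduction of luminescence relative to DMSO vehicle indicated activity. Compounds and 5-fluorouridine were added together to 2,000 cells per well, incubated for 16 hr at 37 °C, then developed with ONE-Glo.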
On the % scale 0 is the no-effect control and ±100 the full control effect; potency means the concentration at half of the fitted maximal effect.

SMILES | Potency | activity change, negative = inhibition
CC(=O)c1cccc(NC(=S)N2CCc3ccccc32)c1 | inconclusive: 11.6 µM [activator, partial curve] | 
COc1ccccc1CN1CCC(n2nccc2NC(=O)CCCc2ccccc2)CC1 | inconclusive: 32.6 µM [inhibitor, single point] | 
C/C=C\C=C\C(=O)Nc1cccc(C2=NOC3(C2)C[C@H](C(N)=O)N(C(=O)c2ccccc2C(=O)c2ccccc2)C3)c1 (stereo not given in full) | inconclusive: 16.4 µM [inhibitor, partial curve, poor fit] | 
CC(=O)c1cccc(S(=O)(=O)Nc2c(C)nn(C)c2C)c1 |  | inactive: -3.09%
Cc1ccsc1C(=O)OCC(=O)Nc1c(Cl)cccc1C(F)(F)F | inconclusive: 32.6 µM [inhibitor, single point] | 
COc1ccc(C(=O)c2ccc(N(C)C)cc2)c(OC)c1 | inconclusive: 3.66 µM [inhibitor, single point] | 
Cn1nc(C(=O)Nc2nc3ccc(S(C)(=O)=O)cc3s2)ccc1=O | inconclusive: 20.6 µM [activator, partial curve, poor fit] | 
COCCOC(=O)c1c(NC(=O)CN2c3ccccc3CC2C)sc(C(N)=O)c1C (stereo not given) | active: 9.2 µM | 
COc1ccc(C(CNC(=O)CCNC(=O)c2ccccc2OC)N2CCCC2)cc1 (stereo not given) | inconclusive: 10.3 µM [activator, partial curve, poor fit] | 
CN(C)CCN(C(=O)c1ccccc1Cl)c1nc2c(Cl)cccc2s1 |  | inactive: -3.22%
O=C(c1ccc(NS(=O)(=O)c2cccc([N+](=O)[O-])c2)cc1)N1CCCCCC1 |  | inactive: -1.77%
COc1ccc(C(=O)/C(C#N)=N/Nc2cccc([N+](=O)[O-])c2)cc1 | inconclusive: 2.59 µM [inhibitor, full curve] | 
COc1ccc2nc(NC(=O)C3CCN(S(=O)(=O)c4cccnc4)CC3)sc2c1 | inconclusive: 18.4 µM [inhibitor, single point] | 
COc1cc(/C=N/NC2=NC(C)(C)Cc3ccccc32)cc(OC)c1OC | inconclusive: 11.6 µM [inhibitor, partial curve] | 
O=[N+]([O-])c1cccnc1N1CCC(c2cc(-c3ccc(Cl)cc3Cl)n[nH]2)CC1 | inconclusive: 29.1 µM [inhibitor, partial curve, poor fit] | 
COc1ccc(NC(=O)CSc2ccc(-c3ccco3)nn2)cc1OC |  | inactive: -19.7%
Cc1ccc(-n2c3nc(=O)[nH]c(=O)c-3cc3cc([N+](=O)[O-])ccc32)cc1 | inconclusive: 20.6 µM [inhibitor, single point] | 
COc1ccc(C(=O)c2coc3ccc(O)cc23)cc1 | inconclusive: 3.66 µM [activator, full curve] | 
COc1ccc(NC(=O)CSc2nc3ncccc3[nH]2)cc1OC | inconclusive: 20.6 µM [activator, partial curve, poor fit] | 
Cn1c(=O)c(-c2cc(=O)[nH][nH]2)c(O)c2ccccc21 |  | inactive: 0.308%
CN(C)c1ccc(NC(=O)CCCc2ccccc2)cc1 | inconclusive: 2.24 µM [activator, full curve] | 
Cc1csc(SCC(=O)c2c(N)n(C)c(=O)n(C)c2=O)n1 | inconclusive: 18.4 µM [activator, partial curve] | 

6 compounds already listed, ordered by molecular weight, high to low:
SMILES | Potency | activity change, negative = inhibition
C/C=C\C=C\C(=O)Nc1cccc(C2=NOC3(C2)C[C@H](C(N)=O)N(C(=O)c2ccccc2C(=O)c2ccccc2)C3)c1 (stereo not given in full) | inconclusive: 16.4 µM [inhibitor, partial curve, poor fit] | 
COc1ccc(C(CNC(=O)CCNC(=O)c2ccccc2OC)N2CCCC2)cc1 (stereo not given) | inconclusive: 10.3 µM [activator, partial curve, poor fit] | 
O=C(c1ccc(NS(=O)(=O)c2cccc([N+](=O)[O-])c2)cc1)N1CCCCCC1 |  | inactive: -1.77%
Cn1nc(C(=O)Nc2nc3ccc(S(C)(=O)=O)cc3s2)ccc1=O | inconclusive: 20.6 µM [activator, partial curve, poor fit] | 
COc1ccc(NC(=O)CSc2nc3ncccc3[nH]2)cc1OC | inconclusive: 20.6 µM [activator, partial curve, poor fit] | 
COc1ccc(C(=O)c2coc3ccc(O)cc23)cc1 | inconclusive: 3.66 µM [activator, full curve] | 

Further records follow:

SMILES | Potency | activity change, negative = inhibition
CCOC(=O)c1ccccc1NS(=O)(=O)c1ccc(OC)cc1 | inconclusive: 7.31 µM [inhibitor, partial curve, poor fit] | 
Cc1ccc(C(=O)Nc2ccc3c(c2)OCO3)cc1Cl | inconclusive: 5.8 µM [activator, partial curve] | 
CC(C)(C)NNC(=S)Nc1cccc(C(F)(F)F)c1 |  | inactive: -25.5%
CC(C)C(=O)Nc1ccc(C(=O)Nc2ccc(S(=O)(=O)N3CCOCC3)cc2)cc1 | inconclusive: 18.3 µM [inhibitor, single point] | 
COc1ccc(-c2csc(NC(=O)Cc3ccccc3F)n2)c(OC)c1 | inconclusive: 29.1 µM [inhibitor, single point] | 
CCN1CCN(Cc2nc3cc(NC(=O)COc4ccc([N+](=O)[O-])cc4)ccc3n2C)CC1 |  | inactive: -2.93%
CC(C)Oc1ccc(C(=O)NCC(=O)Nc2ccc3c(c2)CCC3)cc1 | inconclusive: 20.6 µM [activator, single point] | 
Cc1cc(C)n2nc(SCc3nc4ccccc4[nH]3)nc2n1 | inconclusive: 23.1 µM [activator, partial curve, poor fit] | 
CC(NCc1ccc(S(N)(=O)=O)cc1)C(=O)N1c2ccccc2CC1C (stereo not given) |  | inactive: -3.39%
C=CCn1c(SCC(=O)N2CCN(c3ccc(F)cc3)CC2)nnc1-c1cccs1 | inconclusive: 14.6 µM [inhibitor, partial curve] | 
COc1cccc(CN2CCCC(N3CCc4ccccc4C3)C2)c1O (stereo not given) | inconclusive: 0.231 µM [activator, single point] | 
Cc1ccc(C(=O)CN2C(=O)NC3(CCCCCC3)C2=O)c(C)c1 | inconclusive: 20.6 µM [activator, partial curve] | 
Cc1ccc(NC(=O)COC(=O)COc2ccc(Cl)cc2C)c([N+](=O)[O-])c1 |  | inactive: 8.18%
Oc1cccc(-c2nc3ccccc3s2)c1 | inconclusive: 2.91 µM [activator, single point] | 
COc1cc(/C=C/C(=O)OCC(=O)NC2CC2)cc(S(=O)(=O)N2CCc3ccccc32)c1OC | inconclusive: 0.184 µM [inhibitor, single point] | 
Cc1cnc(C(=O)Nc2nc(-c3ccccc3)cs2)cn1 | inconclusive: 25.9 µM [activator, partial curve, poor fit] | 
Cc1ccc(N(C(=O)c2sc(C)nc2C)C(C(=O)NC(C)(C)C)c2ccncc2)cc1 (stereo not given) | inconclusive: 29.1 µM [inhibitor, partial curve, poor fit] | 
CCOc1ccc2nc(SCC(=O)NCc3ccc(OC)c(OC)c3)[nH]c2c1 | inconclusive: 29.1 µM [inhibitor, single point] | 
CNc1ccccc(-c2ccc3ccccc3n2)c1=O | inconclusive: 4.11 µM [activator, full curve] | 
CC(C)(C)c1ccc(C(=O)NCC(=O)OCC(=O)Nc2ccc3c(c2)OCCO3)cc1 | inconclusive: 23.1 µM [activator, single point] | 
CC1CC2=C(NC(=S)NC2c2ccc(F)cc2)/C(=C/c2ccc(F)cc2)C1 (stereo not given) |  | inactive: 6.83%
N#CCSc1ccccc1NC(=O)COC(=O)CCN1C(=O)C2CC=CCC2C1=O (stereo not given) |  | inactive: 10.6%

SMILES | Potency | activity change, negative = inhibition
CN(C)S(=O)(=O)c1ccc(C(=O)OCCc2ccccc2)cc1 |  | inactive: 11.7%
O=C(CCn1nc(-c2ccc(F)cc2)ccc1=O)NCc1ccccc1 | inconclusive: 20.6 µM [inhibitor, partial curve, poor fit] | 
COC(=O)c1sc(N)c(C(=O)OC)c1COC(=O)CNS(=O)(=O)c1ccc(C)c(C)c1 | inconclusive: 18.4 µM [inhibitor, partial curve] | 
CCCNC(=O)c1ccc2c(c1)ncn2-c1ccccc1OC | inconclusive: 5.8 µM [activator, partial curve] | 
CCc1nc2ccccc2c(C(=O)OCC(=O)Nc2ccc(S(=O)(=O)N3CCOCC3)cc2)c1C | active: 18.4 µM | 
O=C(Nc1ccccc1)c1ccc2nsnc2c1 | inconclusive: 20.6 µM [activator, partial curve] | 
Cc1cc(=O)oc2c(C)c(OCC(=O)NC3CC(C)(C)NC(C)(C)C3)ccc12 | inconclusive: 23.1 µM [activator, single point] | 
Cn1cnc2cc(NCc3ccccc3Cl)ccc21 | inconclusive: 18.3 µM [activator, partial curve] | 
CCOc1ccc2nc(NC(=O)COc3ccc(N(C)S(=O)(=O)c4ccc(C)cc4)cc3)sc2c1 | inconclusive: 6.51 µM [inhibitor, single point] | 
CC1(C)Cc2ccccc2-c2nnc(SCc3ccc(C#N)cc3)n21 | inconclusive: 29.1 µM [inhibitor, single point] | 
O=S(=O)(c1ccc(-c2nnc(SCc3ccccc3)o2)cc1)N1CCCC1 | inconclusive: 29.1 µM [inhibitor, single point] | 
Cc1ccc(S(=O)(=O)Nc2cc(C)cn(Cc3ccc(F)cc3)c2=O)cc1 | inconclusive: 13 µM [inhibitor, partial curve] | 
CC(=O)Nc1ccc(C(=O)OCC(=O)c2ccc(F)cc2)cc1 |  | inactive: 18.5%
CCCCNC(=O)c1ccc(Cn2c(=S)[nH]c3c([nH]c4ccc(OC)cc43)c2=O)cc1 | inconclusive: 3.26 µM [inhibitor, full curve] | 
C[C@@H]1CN(Cc2nc(-c3cccs3)no2)C[C@H](C)O1 | inconclusive: 29.1 µM [activator, partial curve, poor fit] | 
Fc1ccc(/C=N/NC(=S)Nc2cccnc2)cc1F | inconclusive: 6.51 µM [activator, partial curve, poor fit] | 
CCOc1ccc(-c2cc(C(=O)NCC3CCCO3)c3ccccc3n2)cc1 (stereo not given) | inconclusive: 25.9 µM [inhibitor, single point] | 
COc1ccc(-c2cc3c(=O)n(CC(=O)NCc4ccccc4OC)ncn3n2)cc1 | inconclusive: 16.4 µM [activator, partial curve, poor fit] | 
Cc1c(N/N=C(\C#N)C(=O)c2ccccc2)c(=O)n(-c2ccccc2)n1C | inconclusive: 4.11 µM [inhibitor, full curve] | 
COc1ccc(CCNc2oc(COc3ccc(Br)cc3)nc2C#N)cc1OC | active: 20.6 µM | 
CCCNS(=O)(=O)c1ccc(CCC(=O)Nc2ccc3c(c2)OCCO3)cc1 |  | inactive: -2.4%
